We go through seven sequences from patent publication US20240124883.

For part of these data: Negatives hold for the conditions tested. For part of these data: The exact form of at least one protein or probe is not confirmed.

One series concerns tubulin. Put plainly: binding assay. As to conditions: slot blot; negative control protein; label: biotin; single-stranded DNA.
Series [1] has as its target alpha-synuclein 140 fibrils (full length) (Homo sapiens) (UniProt P37840). Put plainly: binding assay. As to conditions: slot blot; purified recombinant protein; protein details: untagged, E. coli BL21(DE3) pRK172, fibrils; label: biotin; single-stranded DNA.
The target of series [2] is alpha-synuclein 122 monomer (Homo sapiens) (UniProt P37840). Put plainly: binding assay. To be noted: slot blot; binds only fibril forms; purified recombinant protein; protein details: untagged, E. coli BL21(DE3) pET3a; label: biotin; single-stranded DNA.
For series [3], the target named is alpha-synuclein 130 fibrils (C-terminally truncated) (Homo sapiens) (UniProt P37840). Put plainly: binding assay. To be noted: slot blot, purified recombinant protein, protein details: untagged, E. coli BL21(DE3) pET3a, fibrils, label: biotin, single-stranded DNA.
Series [4] has as its target amyloid beta 42 (Abeta42) fibrils (UniProt P05067). Description: binding assay. As to conditions: slot blot; label: biotin; single-stranded DNA.
In series [5] the target is beta-synuclein (monomers and fibrils) (UniProt Q16143). Put plainly: binding assay. As to conditions: slot blot; label: biotin; single-stranded DNA.
Series [6] has as its target alpha-synuclein 107 monomer (C-terminally truncated) (Homo sapiens) (UniProt P37840). Description: binding assay. As to conditions: slot blot, fibril-specific, PBST 4 C; purified recombinant protein; label: biotin; single-stranded DNA.
The target of series [7] is gamma-synuclein (monomers and fibrils) (UniProt O76070). Put plainly: binding assay. To be noted: slot blot; label: biotin; single-stranded DNA.
Series [8] deals with alpha-synuclein 115 fibrils (C-terminally truncated) (Homo sapiens) (UniProt P37840). Put plainly: binding assay. To be noted: slot blot, purified recombinant protein, protein details: untagged, E. coli BL21(DE3) pET3a, fibrils, label: biotin, single-stranded DNA.
The target of series [9] is alpha-synuclein 122 fibrils (C-terminally truncated) (Homo sapiens) (UniProt P37840). Description: binding assay. To be noted: slot blot, PBST, 4 C overnight; purified recombinant protein; protein details: untagged, E. coli BL21(DE3) pET3a, fibrils; label: biotin; single-stranded DNA.
In series [10] the target is alpha-synuclein 130 monomer (C-terminally truncated) (Homo sapiens) (UniProt P37840). Put plainly: binding assay. To be noted: slot blot, fibril-specific, PBST 4 C; purified recombinant protein; label: biotin; single-stranded DNA.
The target in series [11] is amyloid beta 42 (Abeta42) monomer (UniProt P05067). Put plainly: binding assay. To be noted: slot blot, specificity control; purified recombinant protein; label: biotin; single-stranded DNA.
For series [12], the system named is amyloid Bri (ABri) fibrils. Put plainly: binding assay. As to conditions: slot blot; label: biotin; single-stranded DNA.
Series [13] addresses islet amyloid polypeptide (IAPP) fibrils (UniProt P10997). Description: binding assay. To be noted: slot blot; label: biotin; single-stranded DNA.
Series [14] addresses islet amyloid polypeptide (IAPP) monomer (UniProt P10997). Put plainly: binding assay. To be noted: slot blot, specificity control; purified recombinant protein; label: biotin; single-stranded DNA.
The target of series [15] is alpha-synuclein 107 fibrils (C-terminally truncated) (Homo sapiens) (UniProt P37840). Put plainly: binding assay. To be noted: slot blot; purified recombinant protein; protein details: untagged, E. coli BL21(DE3) pET3a, fibrils; label: biotin; single-stranded DNA.
The target of series [16] is amyloid Bri (ABri) monomer (UniProt Q9Y287). Put plainly: binding assay. To be noted: slot blot, specificity control; purified recombinant protein; label: biotin; single-stranded DNA.
Series [17] addresses alpha-synuclein 115 monomer (C-terminally truncated) (Homo sapiens) (UniProt P37840). Description: binding assay. As to conditions: slot blot, fibril-specific, PBST 4 C; purified recombinant protein; label: biotin; single-stranded DNA.
Series [18] concerns the target alpha-synuclein 140 monomer (full length) (Homo sapiens) (UniProt P37840). Put plainly: binding assay. To be noted: slot blot; purified recombinant protein; protein details: untagged, E. coli BL21(DE3) pRK172; label: biotin; single-stranded DNA.
Series [19] deals with alpha-synuclein 122 fibrils (C-terminally truncated) (Homo sapiens) (UniProt P37840). Put plainly: inhibition of the protein. To be noted: inhibits alpha-syn 122 seeded aggregation of alpha-syn 140 (Th-S, EM, western) at seed:aptamer 1:1, 1:5, 1:20, 37 C, purified recombinant protein, protein details: untagged, E. coli BL21(DE3) pET3a, label: biotin, single-stranded DNA, dose not given here.

Series [20] deals with alpha-synuclein (wild type, expressed in HEK293 with alpha-syn 122 seeds) (Homo sapiens) (UniProt P37840). Description: activity in cells. As to conditions: decreases insoluble pS129-alpha-syn in HEK cells, mainly when aptamer and seeds were co-transfected after 1 h incubation; protein in cells; protein details: seeds are recombinant alpha-syn 1-122; single-stranded DNA; dose not given here.

[21] abbreviates: reactive only to 130, 122 and 107 forms.
The mark [22] stands for this setting: reactive to 122, 115 and 107 forms.
The mark [23] stands for this setting: reactive only to 122 and 107 forms.

As to “AGGGTCTCTTTCGTTTTGGTGTATGTTTCTTCATTATCGG [Apt5]”, the binding result in the series with tubulin was “no binding”; in series [1], “no binding”; in [2], “no binding”; in [3] it was “binds”; in series [4] it was “no binding”; in series [5], “no binding”. Further, the binding result was “no binding” in series [6]; “no binding” in series [7]; “no binding” in series [8] (setting [21]); “binds” in series [9]; “no binding” in series [10]; “no binding” in series [11]. The binding result is reported as “no binding” in series [12]; “no binding” in series [13]; “no binding” in series [14]; “binds” in series [15]; “no binding” in [16]; “no binding” in series [17]. In [18], the binding result is “no binding”.
For the sequence “CCATCACACACCATTGTTCACTCCCTGTCTCTCGCACGCT [Apt20]”, the binding result (with tubulin; in series [1]; in [2]; in series [3] (setting [22]); in series [4]; in series [5]) was “no binding” throughout. The binding result in series [6] was “no binding”; in series [7], “no binding”; in series [8] it was “binds”; in series [9] it was “binds”; in series [10], “no binding”; in series [11] it was “no binding”. Moreover, the binding result was “no binding” in series [12]; “no binding” in series [13]; “no binding” in series [14]; “binds” in series [15]; “no binding” in series [16]; “no binding” in series [17]. Moreover, the binding result in series [18] is reported as “no binding”.
On to “CTAGTGTCGCCTTTTGCCTCGTTGTCTCCCATTTATCTCG [Apt7]”, for which the binding result (with tubulin; in series [1]; in series [2]; in series [3] (setting [22]); in [4]; in series [5]) was “no binding” throughout. Further, the binding result is “no binding” in series [6]; “no binding” in series [7]; “binds” in [8]; “binds” in [9]; “no binding” in series [10]; “no binding” in series [11]. For the same sequence, the binding result in series [12] is on record as “no binding”; in series [13] it was “no binding”; in [14], “no binding”; in series [15], “binds”; in series [16], “no binding”; in [17] it was “no binding”. Also, the binding result in series [18] is reported as “no binding”.
Turning to “CTTTCCTTTCCTGTCCGCTTCGATAACCCTTCACACATCC [Apt15]”, the binding result in the series with tubulin is given as “no binding”; in series [1] it was “no binding”; in series [2], “no binding”; in series [3], “binds”; in series [4] it was “no binding”; in [5], “no binding”. The binding result in series [6] is listed as “no binding”; in series [7] it was “no binding”; in [8], “binds”; in [9], “binds”; in series [10], “no binding”; in [11] it was “no binding”. Moreover, the binding result in [12] is “no binding”; in [13], “no binding”; in series [14], “no binding”; in [15], “binds”; in series [16], “no binding”; in series [17], “no binding”. In addition, the binding result in [18] is listed as “no binding”. For the same sequence, the “functional effect of the aptamer” value in series [19] and in series [20] was “active” each time.
As for “TAGCGTTCCCCCTCACTCCTTGGTTGGTCATCATCGTCCC [Apt9]”, the binding result in the series on tubulin is on record as “no binding”; in series [1], “no binding”; in series [2], “no binding”; in series [3], “binds”; in [4] it was “no binding”; in series [5] it was “no binding”. In addition, the binding result in series [6] was “no binding”; in series [7] it was “no binding”; in [8] (setting [21]), “no binding”; in [9], “binds”; in [10] it was “no binding”; in series [11], “no binding”. The binding result is listed as “no binding” in series [12]; “no binding” in series [13]; “no binding” in series [14]; “binds” in series [15]; “no binding” in series [16]; “no binding” in series [17]. For the same sequence, the binding result in series [18] is listed as “no binding”.
For “CGGGCTTTGTTATCCTGATGCTCCTCCTTCCTACCACTC [Apt3]”, the binding result in the series with tubulin is recorded as “no binding”; in series [1] it was “no binding”; in series [2] it was “no binding”; in [3], “binds”; in series [4] it was “no binding”; in series [5], “no binding”. Also, the binding result in series [6] is “no binding”; in series [7], “no binding”; in series [8] (setting [21]), “no binding”; in series [9] it was “binds”; in [10], “no binding”; in series [11], “no binding”. Further, the binding result in series [12] is on record as “no binding”; in series [13], “no binding”; in series [14] it was “no binding”; in [15], “binds”; in series [16], “no binding”; in [17], “no binding”. Besides, the binding result in series [18] is “no binding”.
Take “CGCCTCTGTCAAGTCCTTATTCACGTCTCAGTCCCTCCTA [Apt18]”: the binding result (in the series with tubulin; in series [1]; in series [2]; in series [3] (setting [23]); in [4]; in series [5]) was “no binding” in each case. Also, the binding result in series [6] was “no binding”; in [7] it was “no binding”; in series [8] (setting [23]), “no binding”; in series [9], “binds”; in series [10], “no binding”; in series [11], “no binding”. Also, the binding result in [12] is listed as “no binding”; in [13], “no binding”; in [14], “no binding”; in series [15], “binds”; in series [16], “no binding”; in series [17] it was “no binding”. Moreover, in series [18], the binding result is recorded as “no binding”.
